{"source": "patent US20090054394A1", "about": "“POLYMORPHISMS IN MGST3 ARE ASSOCIATED WITH ELEVATED ALAT LEVELS AFTER XIMELAGATRAN TREATMENT” (priority 2005, published 2009)", "origin": "cited, not measured here", "key": {"[1]": {"target": "trypsin (Homo sapiens, UniProt P07477)", "settings": "prodrug itself; cited from earlier work"}, "[2]": {"target": "thrombin (Homo sapiens, UniProt P00734)", "settings": "prodrug itself; cited from earlier work"}}, "note": "At least one compound was matched to its structure with a doubt left.", "data": [{"smiles": "CCOC(=O)CN[C@@H](C(=O)N1CC[C@H]1C(=O)NCc1ccc(/C(N)=N\\O)cc1)C1CCCCC1", "note": "[ximelagatran, EtOOC—CH2—(R)Cgl-Aze-Pab-OH]", "values": [{"measurement": "activity per se to trypsin", "setting": "[1]", "result": "inactive per se"}, {"measurement": "activity per se to thrombin", "setting": "[2]", "result": "inactive per se"}]}]}
